Experimental data taken from the supplement of paper PMC6331611.
± gives the standard deviation of the averaged measurements. In all, about 1,600 compounds were measured (“normalized intracellular growth (luminescence, IQM-normalized) in RAW264.7 macrophages”: median about 1, lowest 2% from about 0.43 on). The list shows a part of the results.

Tested on: Salmonella enterica serovar Typhimurium SL1344
Assay: normalized intracellular growth (luminescence, IQM-normalized) in RAW264.7 macrophages (fraction of plate interquartile mean); higher = more bacterial growth (less inhibition)
Conditions: 10 µM

CC(C)=CC1C(C(=O)OCc2cccc(Oc3ccccc3)c2)C1(C)C (stereo not given)
normalized intracellular growth (time point: T3 (3 h)): 0.984 ± 0.028
normalized intracellular growth (time point: Tfinal (~6 h)): 0.94 ± 0.11

NC(=O)C[S@@+]([O-])C(c1ccccc1)c1ccccc1
normalized intracellular growth (time point: T3 (3 h)): 1.01 ± 0.057
normalized intracellular growth (time point: Tfinal (~6 h)): 0.925 ± 0.077

C[CH2][Hg][S]c1ccccc1C(=O)[O-].[Na+]
normalized intracellular growth (time point: T3 (3 h)): 0.4 ± 0.083
normalized intracellular growth (time point: Tfinal (~6 h)): 0.819 ± 0.26

Oc1noc2c1CCNC2
normalized intracellular growth (time point: T3 (3 h)): 0.959 ± 0.015
normalized intracellular growth (time point: Tfinal (~6 h)): 0.893 ± 0.089

CCCC(C)C1(CC)C(=O)NC(=S)NC1=O (stereo not given)
normalized intracellular growth (time point: T3 (3 h)): 0.942 ± 0.015
normalized intracellular growth (time point: Tfinal (~6 h)): 0.864 ± 0.22

O=C1C=C2C=C[C@@H]3C[C@@]2(O1)[C@H]1CCCCN31
normalized intracellular growth (time point: T3 (3 h)): 1 ± 0.014
normalized intracellular growth (time point: Tfinal (~6 h)): 0.985 ± 0.031

O=C(O)CCCc1ccc(N(CCCl)CCCl)cc1
normalized intracellular growth (time point: T3 (3 h)): 1.11 ± 0.025
normalized intracellular growth (time point: Tfinal (~6 h)): 1.42 ± 0.21

O=C(O[C@H]1C[C@H]2CC[C@@H](C1)[N+]21CCCC1)C(O)(c1ccccc1)c1ccccc1
normalized intracellular growth (time point: T3 (3 h)): 0.996 ± 0.054
normalized intracellular growth (time point: Tfinal (~6 h)): 0.868 ± 0.29

COc1ccc(C(=O)N2CCCC2=O)cc1
normalized intracellular growth (time point: T3 (3 h)): 0.9913 ± 0.0098
normalized intracellular growth (time point: Tfinal (~6 h)): 0.94 ± 0.042

Nc1ccncc1
normalized intracellular growth (time point: T3 (3 h)): 0.708 ± 0.058
normalized intracellular growth (time point: Tfinal (~6 h)): 1.05 ± 0.13

Cc1ncc(CNC(=O)N(CCCl)N=O)c(N)n1
normalized intracellular growth (time point: T3 (3 h)): 0.95 ± 0.036
normalized intracellular growth (time point: Tfinal (~6 h)): 1.04 ± 0.029

CNc1ccc(C(=O)CC(O)CCC(C)C2OC(=O)CC(O)CC(=O)CC(O)CC(O)CC(O)CC(O)CC3(O)CC(O)C(C(=O)OC)C(CC(O[C@@H]4O[C@H](C)[C@@H](O)[C@H](N)[C@@H]4O)/C=C/C=C/C=C/C=C/C=C/C=C/C=C/C2C)O3)cc1.COC(=O)C1C(O)CC2(O)CC(O)CC(O)CC(O)CC(O)CC(=O)CC(O)CC(=O)OC(C(C)CCC(O)CC(=O)c3ccc(N)cc3)C(C)/C=C/C=C/C=C/C=C/C=C/C=C/C=C/C(O[C@@H]3O[C@H](C)[C@@H](O)[C@H](N)[C@@H]3O)CC1O2 (stereo not given in full)
normalized intracellular growth (time point: T3 (3 h)): 0.957 ± 0.023
normalized intracellular growth (time point: Tfinal (~6 h)): 0.927 ± 0.054

CCCN1C[C@H](CSC)C[C@@H]2c3cccc4[nH]cc(c34)C[C@H]21
normalized intracellular growth (time point: T3 (3 h)): 1.01 ± 0.09
normalized intracellular growth (time point: Tfinal (~6 h)): 0.996 ± 0.31

N.N.[Cl][Pt][Cl]
normalized intracellular growth (time point: T3 (3 h)): 1.05 ± 0.047
normalized intracellular growth (time point: Tfinal (~6 h)): 0.858 ± 0.032

CC(C)(O)C(Cl)(Cl)Cl
normalized intracellular growth (time point: T3 (3 h)): 0.985 ± 0.021
normalized intracellular growth (time point: Tfinal (~6 h)): 0.998 ± 0.089

Oc1cccc2cccnc12
normalized intracellular growth (time point: T3 (3 h)): 1.04 ± 0.023
normalized intracellular growth (time point: Tfinal (~6 h)): 0.994 ± 0.044

c1ccc2nc(N3CCNCC3)ccc2c1
normalized intracellular growth (time point: T3 (3 h)): 1.14 ± 0.043
normalized intracellular growth (time point: Tfinal (~6 h)): 1 ± 0.27

C[N+](C)(C)CCCCCCCCCC[N+](C)(C)C
normalized intracellular growth (time point: T3 (3 h)): 1.03 ± 0.054
normalized intracellular growth (time point: Tfinal (~6 h)): 1.16 ± 0.17

CN1C[C@H](C(=O)N[C@]2(C)O[C@@]3(O)[C@@H]4CCCN4C(=O)[C@H](Cc4ccccc4)N3C2=O)C[C@@H]2c3cccc4[nH]cc(c34)C[C@H]21
normalized intracellular growth (time point: T3 (3 h)): 1.02 ± 0.058
normalized intracellular growth (time point: Tfinal (~6 h)): 0.999 ± 0.14

C[N+]1(C)[C@@H]2CC[C@H]1C[C@@H](OC(=O)C(CO)c1ccccc1)C2 (stereo not given in full)
normalized intracellular growth (time point: T3 (3 h)): 0.952 ± 0.043
normalized intracellular growth (time point: Tfinal (~6 h)): 1.26 ± 0.1

CC(CCc1ccccc1)NC(C)C(O)c1ccc(O)cc1 (stereo not given)
normalized intracellular growth (time point: T3 (3 h)): 1.02 ± 0.052
normalized intracellular growth (time point: Tfinal (~6 h)): 0.966 ± 0.097

COc1cccc(C2(O)CCCCC2CN(C)C)c1 (stereo not given)
normalized intracellular growth (time point: T3 (3 h)): 0.958 ± 0.02
normalized intracellular growth (time point: Tfinal (~6 h)): 0.925 ± 0.018

CC(=O)OC1CN2CCC1CC2 (stereo not given)
normalized intracellular growth (time point: T3 (3 h)): 0.716 ± 0.049
normalized intracellular growth (time point: Tfinal (~6 h)): 1.12 ± 0.096

O=C1C[C@@H]2OCC=C3CN4CC[C@]56c7ccccc7N1[C@H]5[C@H]2[C@H]3C[C@H]46
normalized intracellular growth (time point: T3 (3 h)): 1.1 ± 0.066
normalized intracellular growth (time point: Tfinal (~6 h)): 0.86 ± 0.13

N#Cc1nn(-c2c(Cl)cc(C(F)(F)F)cc2Cl)c(N)c1[S+]([O-])C(F)(F)F (stereo not given)
normalized intracellular growth (time point: T3 (3 h)): 1.03 ± 0.026
normalized intracellular growth (time point: Tfinal (~6 h)): 1 ± 0.23

NCCc1cc(O)c(O)cc1O
normalized intracellular growth (time point: T3 (3 h)): 1.05 ± 0.033
normalized intracellular growth (time point: Tfinal (~6 h)): 0.988 ± 0.031

CN1[C@@H]2CC[C@H]1C[C@@H](OC(=O)[C@H](CO)c1ccccc1)C2
normalized intracellular growth (time point: T3 (3 h)): 0.9919 ± 0.0093
normalized intracellular growth (time point: Tfinal (~6 h)): 1.09 ± 0.023

Cc1ccc(-c2nc3ccc(C)cn3c2CC(=O)N(C)C)cc1
normalized intracellular growth (time point: T3 (3 h)): 1.1 ± 0.085
normalized intracellular growth (time point: Tfinal (~6 h)): 1.16 ± 0.052

Nc1nc(N)nc(NC2CC2)n1
normalized intracellular growth (time point: T3 (3 h)): 0.965 ± 0.036
normalized intracellular growth (time point: Tfinal (~6 h)): 1.09 ± 0.088

CC(C)N(CCC(C(N)=O)(c1ccccc1)c1ccccn1)C(C)C (stereo not given)
normalized intracellular growth (time point: T3 (3 h)): 1.04 ± 0.029
normalized intracellular growth (time point: Tfinal (~6 h)): 1.13 ± 0.076

C[C@H](N)[C@H](O)c1ccc(O)c(O)c1
normalized intracellular growth (time point: T3 (3 h)): 0.993 ± 0.03
normalized intracellular growth (time point: Tfinal (~6 h)): 0.948 ± 0.11

N=C(N)NN
normalized intracellular growth (time point: T3 (3 h)): 0.998 ± 0.014
normalized intracellular growth (time point: Tfinal (~6 h)): 1.08 ± 0.058

O=[N+]([O-])O[C@@H]1CO[C@H]2[C@@H]1OC[C@@H]2O
normalized intracellular growth (time point: T3 (3 h)): 1.05 ± 0.076
normalized intracellular growth (time point: Tfinal (~6 h)): 0.848 ± 0.069

N[C@@H](Cc1ccc(N(CCCl)CCCl)cc1)C(=O)O
normalized intracellular growth (time point: T3 (3 h)): 0.852 ± 0.12
normalized intracellular growth (time point: Tfinal (~6 h)): 1.04 ± 0.22

C=C[C@H]1CN2CC[C@H]1C[C@H]2[C@H](OC(=O)OCC)c1ccnc2ccc(OC)cc12
normalized intracellular growth (time point: T3 (3 h)): 0.96 ± 0.025
normalized intracellular growth (time point: Tfinal (~6 h)): 0.692 ± 0.1

COc1ccc(CN2CCNCC2)c(OC)c1OC
normalized intracellular growth (time point: T3 (3 h)): 1.06 ± 0.027
normalized intracellular growth (time point: Tfinal (~6 h)): 0.799 ± 0.19

CC[C@H]1CN2CC[C@H]1C[C@@H]2[C@@H](O)c1ccnc2ccc(OC)cc12
normalized intracellular growth (time point: T3 (3 h)): 1.03 ± 0.052
normalized intracellular growth (time point: Tfinal (~6 h)): 0.867 ± 0.12

C=C(C)[C@H]1CN[C@H](C(=O)O)[C@H]1CC(=O)O
normalized intracellular growth (time point: T3 (3 h)): 0.98 ± 0.0065
normalized intracellular growth (time point: Tfinal (~6 h)): 0.953 ± 0.054

Cc1cc(O)ccc1Cl
normalized intracellular growth (time point: T3 (3 h)): 1 ± 0.11
normalized intracellular growth (time point: Tfinal (~6 h)): 0.989 ± 0.21

O=C([O-])Cc1ccccc1.[Na+]
normalized intracellular growth (time point: T3 (3 h)): 1.15 ± 0.043
normalized intracellular growth (time point: Tfinal (~6 h)): 0.699 ± 0.11

CC(C)CC(N(C)C)C1(c2ccc(Cl)cc2)CCC1 (stereo not given)
normalized intracellular growth (time point: T3 (3 h)): 1.02 ± 0.018
normalized intracellular growth (time point: Tfinal (~6 h)): 1.33 ± 0.043

COP(=S)(OC)Oc1ccc(SC)c(C)c1
normalized intracellular growth (time point: T3 (3 h)): 0.998 ± 0.072
normalized intracellular growth (time point: Tfinal (~6 h)): 1.18 ± 0.11

O=c1[nH]c2ccccc2n1CCCN1CCC(n2c(=O)[nH]c3cc(Cl)ccc32)CC1
normalized intracellular growth (time point: T3 (3 h)): 1.05 ± 0.069
normalized intracellular growth (time point: Tfinal (~6 h)): 0.989 ± 0.1

O=C([O-])c1ccccc1-c1c2cc(Br)c(=O)cc-2oc2[c]([Hg+])c([O-])c(Br)cc12.[Na+].[Na+].[OH-]
normalized intracellular growth (time point: T3 (3 h)): 1.11 ± 0.078
normalized intracellular growth (time point: Tfinal (~6 h)): 1.05 ± 0.23

CC(C)[N+](C)(CCC(C(N)=O)(c1ccccc1)c1ccccc1)C(C)C
normalized intracellular growth (time point: T3 (3 h)): 0.983 ± 0.038
normalized intracellular growth (time point: Tfinal (~6 h)): 1.07 ± 0.11

C#C[C@]1(O)CC[C@H]2[C@@H]3CCC4=CC(=O)CC[C@]4(C)[C@H]3CC[C@@]21C
normalized intracellular growth (time point: T3 (3 h)): 0.955 ± 0.086
normalized intracellular growth (time point: Tfinal (~6 h)): 1.25 ± 0.11

C=CC[C@]1(O)CC[C@H]2[C@@H]3CCC4=CC(=O)CCC4=C3C=C[C@@]21C
normalized intracellular growth (time point: T3 (3 h)): 0.98 ± 0.069
normalized intracellular growth (time point: Tfinal (~6 h)): 1.03 ± 0.049

CC(Cc1ccc(O)cc1)NCC(O)c1cc(O)cc(O)c1 (stereo not given)
normalized intracellular growth (time point: T3 (3 h)): 0.962 ± 0.063
normalized intracellular growth (time point: Tfinal (~6 h)): 0.926 ± 0.061

C=C[C@H]1CN2CC[C@H]1C[C@@H]2[C@@H](O)c1ccnc2ccccc12
normalized intracellular growth (time point: T3 (3 h)): 0.976 ± 0.037
normalized intracellular growth (time point: Tfinal (~6 h)): 1.32 ± 0.059

C=CCN=C=S
normalized intracellular growth (time point: T3 (3 h)): 1.02 ± 0.022
normalized intracellular growth (time point: Tfinal (~6 h)): 1.07 ± 0.046

C1CCc2nnnn2CC1
normalized intracellular growth (time point: T3 (3 h)): 0.972 ± 0.019
normalized intracellular growth (time point: Tfinal (~6 h)): 0.919 ± 0.029

COc1ccc2c(c1)[C@]13CCCC[C@@H]1[C@H](C2)N(C)CC3
normalized intracellular growth (time point: T3 (3 h)): 1.04 ± 0.051
normalized intracellular growth (time point: Tfinal (~6 h)): 1.06 ± 0.083

C=C[C@H]1CN2CC[C@H]1C[C@H]2[C@H](O)c1ccnc2ccccc12
normalized intracellular growth (time point: T3 (3 h)): 0.964 ± 0.026
normalized intracellular growth (time point: Tfinal (~6 h)): 0.968 ± 0.35

CC(=O)OCC1=C(C(=O)O)N2C(=O)[C@@H](NC(=O)CCC[C@@H](N)C(=O)O)[C@H]2SC1
normalized intracellular growth (time point: T3 (3 h)): 0.9743 ± 0.0042
normalized intracellular growth (time point: Tfinal (~6 h)): 1.11 ± 0.18

Cc1cccc(C)c1NC1=NCCCS1
normalized intracellular growth (time point: T3 (3 h)): 1.01 ± 0.015
normalized intracellular growth (time point: Tfinal (~6 h)): 0.897 ± 0.044

C[C@@H](CO)NC(=O)[C@@H]1C=C2c3cccc4[nH]cc(c34)C[C@H]2N(C)C1
normalized intracellular growth (time point: T3 (3 h)): 0.942 ± 0.039
normalized intracellular growth (time point: Tfinal (~6 h)): 0.891 ± 0.043

Clc1ccc(C(OCCN2CCCCC2)c2ccccc2)cc1 (stereo not given)
normalized intracellular growth (time point: T3 (3 h)): 0.995 ± 0.11
normalized intracellular growth (time point: Tfinal (~6 h)): 1.04 ± 0.28

NC(=O)C[S+]([O-])C(c1ccccc1)c1ccccc1 (stereo not given)
normalized intracellular growth (time point: T3 (3 h)): 1.01 ± 0.11
normalized intracellular growth (time point: Tfinal (~6 h)): 0.845 ± 0.15

O=P1(NCCCl)OCCCN1CCCl (stereo not given)
normalized intracellular growth (time point: T3 (3 h)): 0.964 ± 0.024
normalized intracellular growth (time point: Tfinal (~6 h)): 1.06 ± 0.21

Oc1ccc(Cl)cc1
normalized intracellular growth (time point: T3 (3 h)): 1.02 ± 0.017
normalized intracellular growth (time point: Tfinal (~6 h)): 1.13 ± 0.023
